For part of these data: For at least one compound, name, drawing or mass did not settle the structure. Some entries share one result that the patent states for a list of compounds.
How the values were obtained:
mTOR-raptor complex = assay: Coimmunoprecipitation of raptor with mTOR, compound added to cell extracts or immune complexes; assay type: binding; conditions: caffeine 1 mM, LY294002 10 μM, rapamycin 1 μM plus FKBP12 10 μM, wortmannin 1 μM
Experimental: 293T cells were transfected with pcDNA3 alone (Vec.) or with a combination of pcDNA3AU1-mTOR, pcDNA33HA-Raptor, and pcDNA33HA-mLST8. Extracts of the cells were incubated with increasing concentrations of FTS before AU1-mTOR was immunoprecipated. Samples of the immune complexes were incubated with [γ-^32P]ATP and recombinant [His^6]PHAS-I, then subjected to SDS-PAGE and transferred to an immobilon membrane. After obtaining a phosphorimage of the membrane to detect ^32P-PHAS-I, the membrane was immunoblotted with PThr^36/45 antibodies. Other samples of the immune complexes were subjected to SDS-PAGE and immunoblots were prepared with antibodies to the HA epitope or to mTOR (see FIG. 13A). […]
(§1) Samples of extracts from 293T cells overexpressing AU1-mTOR, HA-raptor, and HA-mLST8 were incubated for 1 h with increasing concentrations of FTS (●, ▴, ▪) or GTS (∘, Δ, □) before immunoprecipitations were conducted with anti-AU1 antibodies. mTOR kinase activity (●, ∘) was determined by measuring ^32P incorporation into [His^6]PHAS-I in immune complex kinases assays performed with [γ-^32P]ATP (see FIG. 14A). The relative amounts of HA-raptor (▴, Δ) and HA-mLST8 (▪, □) that coimmunoprecipitated with AU1-mTOR were determined after immunoblotting with anti-HA antibodies (see FIG. 14B). […]

[1] = tested on: ERK1/2, Akt, p70S6K, PHAS-1 phosphorylation in LTED cells; assay: IGF-1 induced activation of MAP kinase, PI3 kinase and mTOR in LTED cells (Western); assay type: cell-based, human
Experimental: FIG. 9. represents data showing the effect of FTS on IGF-1 induced activation of MAP kinase, PI3 kinase, and mTOR in LTED cells. Subconfluent LTED cells grown in 60 mm dishes were serum starved for 24 h, pretreated with FTS (100 μM) or LY 294002 (LY, 20 μM) for 10, 30 or 60 min before addition of IGF-1 (20 ng/ml for 10 min). Cells were then harvested and cell lysates prepared. Phosphorylated and total kinases were detected by Western analysis using specific antibodies.
LTED cells were pretreated with FTS (100 μM) or LY 294002 (20 μM) for 10, 30, and 60 min and then IGF-1 (20 ng/ml) was added for 10 min. […] The inhibitory effect was seen as early as 10 minutes of treatment whereas FTS induced no effect. In marked contrast, both FTS and Ly inhibited the phosphorylation of 4E BP-1, particularly at the 60 minute time point. (FIG. 9).

mTOR = biological target: T1, mTOR (Rattus norvegicus, UniProt P42346); assay: Immune complex assay of mTOR activity, compound added to extracts or immune complexes; assay type: biochemical; conditions: immune complexes 30 min; caffeine 1 mM, LY294002 10 μM, rapamycin 1 μM plus FKBP12 10 μM, wortmannin 1 μM
T1 construct: expressed in transfected cells; host or cells: 293T
Experimental: 293T cells were transfected with expression vectors for AU1-epitope tagged mTOR, HA-tagged raptor, and HA-tagged mLST8. After 24 h, the overexpressed mTOR was immunoprecipitated with AU1 antibodies, and immune complexes were incubated with increasing concentrations of FTS in a reaction mixture containing 2 mM [γ^32P] ATP (250 μCi/ml), 20 mM MnCl2, and 0.1 mg/ml purified recombinant histidine-tagged PHAS-1. After fifteen minutes the reaction was stopped by adding SDS sample buffer, and samples were subjected to SDS-PAGE. The amount of ^32P incorporated into PHAS-I was determined and expressed as a percentage of that incorporated in the absence of FTS. Mean values±the half the range of two experiments are presented. […]
as §1

[2] = tested on: ERK1/2, Akt, p70S6K, PHAS-1 phosphorylation in LTED cells; assay: EGF induced activation of MAP kinase, PI3 kinase and mTOR in LTED cells (Western); assay type: cell-based, human
Text: FIG. 8 represents data showing the effect of FTS on EGF induced activation of MAP kinase, PI3 kinase, and mTOR in LTED cells. […] Cells were then harvested and cell lysate prepared. Phosphorylated and total kinases were detected by Western analysis using specific antibodies.
The effects of the specific growth factors, EFG and IGF-1 were also examined. Serum contains multiple growth factors that activate MAP kinase and PI3 kinase either by recruitment and activation of the common mediator Ras (such as EGF) or through a direct mechanism (such as IGF-1). To further explore the site of action of FTS, EGF-induced activation of MAPK and PI3 kinase was first examined. Specific inhibitors for PI3 kinase and mammalian target of rapamycin (mTOR) were included for comparison. […] One-hour treatment was chosen as the time point allowing most efficient comparisons among molecules.

Elk-1 = assay: GAL4-Elk / GAL4-luc luciferase assay in LTED cells; assay type: cell-based, human; conditions: 6 hours
[3] = tested on: hormone dependent breast cancer; conditions: cited from earlier work
LTED cells [4] = assay: Estradiol dose response of growth (hypersensitivity), LTED cells; assay type: cell-based, human
Text: During the phase when tamoxifen first begins to stimulate tumor growth, removal of tamoxifen and administration of very low doses of estradiol stimulates tumor growth. In marked contrast, wild type tumors not exposed to tamoxifen long term are not stimulated by such low doses of estradiol. Taken together, these experiments indicate that either estradiol deprivation or blockade of estrogen action with antiestrogens enhances the level of sensitivity to estrogens or to the estrogenic properties of tamoxifen. This phenomenon of adaptive hypersensitivity is believed to be responsible for the superiority of aromatase inhibitors over tamoxifen in a variety of clinical settings.
As further evidence of the role of MAP kinase, PD 98059 was administered to LTED cells and its effect on level of sensitivity to estradiol was examined.
To investigate whether the MAP and P13 kinase pathways have a role in estradiol induced cell proliferation, the following experiments were conducted. […] Blockade of this effect was obtained with the MAPK inhibitor PD98059. Administration of TGF at a dose of 10 ng/ml caused a 2-log shift to the left in the ability of estradiol to stimulate the growth of wild-type MCF-7 cells. […] Dual inhibition of PI3K with LY40029 and MAPK with U0126 shifted the level of sensitivity to estradiol more dramatically, by more than 2 logs to the right. […]

MCF-7 cells = assay: Apoptosis ELISA (Cell Death Detection Kit), MCF-7 cells; assay type: cell-based, human; conditions: wild-type cells
Experimental: (§2) FIG. 6 is a bar graph portraying data representing the induction of apoptosis in MCF-7 and LTED cells by FTS. Eighty thousand MCF-7 and LTED cells were plated into each well of 12-well plates in their culture media. Two days later, the cells were treated with FTS for 3 days. Apoptosis was measured using a Cell Death Detection Kit from Roche Molecular Biochemicals. Parallel plates subjected to identical treatment were prepared for cell counting. The results were expressed as the values of optical density at 405 nm per 10,000 cells.
(§3) Applicants postulated that these cells might also have become sensitized to the pro-apoptotic effects of estradiol. To test this hypothesis, an ELISA assay was used to assess apoptosis and to compare the effects of estradiol in wild-type and LTED cells. […] The presence of apoptosis in LTED cells was confirmed by the measurement of annexin V and the use of time-lapse microscopy.
(§4) The effect of a three day treatment with FTS on apoptosis in MCF-7 and LTED cells was examined using the ELISA assay for quantitation. […] LTED cells were much more sensitive than MCF-7 cells to the apoptotic effects of FTS.

JNK = JNK activation in LTED cells cultured in vitro; assay type: cell-based, human
Text: FIGS. 17A & 17B represent data showing the effects of FTS on JNK activation in LETD cells cultured in vitro.
FIGS. 17A & 17B represent data showing the effects of FTS on JNK activation in LTED cells cultured in vitro. […] JNK activation has been reported to be associated with apoptosis.

LTED cells [5] = assay: Apoptosis ELISA (Cell Death Detection Kit), LTED cells; assay type: cell-based, human
Experimental: as §2, §3, §4

Shc = Shc tyrosine phosphorylation in LTED cells; assay type: cell-based, human
Experimental: Shc proteins are known to couple tyrosine kinase receptors to the MAPK pathway and activation of Shc involves the phosphorylation of SHC itself. To investigate if the Shc pathway was involved in the rapid action of estradiol in LTED cells, tyrosine phosphorylated proteins were immuno-precipitated and tested for the presence of Shc under E2 treatment. E2 rapidly stimulated Shc tyrosine phosphorylation in a dose and time dependent fashion with a peak at 3 minutes. The pure estrogen receptor antagonist, fulvestrant, blocked E2-induced Shc and MAPK phosphorylation at 3 min and 15 min respectively.

Structure (SMILES)	decrease of the association of AU1-mTOR and HA-raptor (mTOR-raptor complex)	IGF-1 induced ERK1/2 phosphorylation ([1]; FTS 100 μM or LY 294002 20 μM for 10, 30, 60 min, IGF-1 20 ng/ml 10 min)	phosphorylation of 4E BP-1 ([1]; FTS 100 μM or LY 294002 20 μM, particularly at 60 minute time point)	IGF-1 induced phosphorylation of Akt at Ser473 and p70S6K at Thr389 ([1]; FTS 100 μM or LY 294002 20 μM, IGF-1 20 ng/ml 10 min)	decrease of mTOR activity (mTOR)	growth factor induced Thr229 phosphorylation of p70 S6K ([2]; EGF or IGF-1)	EGF-induced phosphorylation of p70S6K at Thr389 ([2]; FTS even at 50 μM, EGF 1 μg/ml 1 h)	EGF-induced phosphorylation of Akt at Ser473 ([2]; pretreatment FTS 1 h, LY 294002 or rapamycin 3 h, EGF 1 μg/ml 1 h)	PHAS-1 Ser65 phosphorylation ([2]; serum starved 24 h, EGF)	Elk-1 activation (Elk-1)	estradiol levels sufficient to cause tumor proliferation ([3]; after adaptation 12-18 months later)	estradiol required to stimulate tumor growth ([3]; before oophorectomy)	estradiol concentration stimulating proliferation of LTED compared to wild type MCF-7 cells (LTED cells [4])	effect of estradiol on apoptosis (MCF-7 cells)	JNK activation (JNK)	effect of estradiol on apoptosis (LTED cells [5])	time of peak Shc tyrosine phosphorylation (Shc)
O=c1cc(N2CCOCC2)oc2c(-c3ccccc3)cccc12 [LY 294002]	little, if any, effect	Neither FTS nor LY 294002 inhibited	inhibited	profound inhibition	more than 80%	blocked	completely abolished	completely inhibited	dose-dependently inhibited								
C[C@]12CC[C@@H]3c4ccc(O)cc4CC[C@H]3[C@@H]1CC[C@@H]2O [estradiol]										dose-dependently increased	10 to 15 pg/mL	200 pg/mL	four log lower concentrations	inhibition of apoptosis	increase activation of JNK	dramatic enhancement	3 min
COC[C@H]1OC(=O)c2coc3c2[C@@]1(C)C1=C(C3=O)[C@@H]2CCC(=O)[C@@]2(C)C[C@H]1OC(C)=O [wortmannin, reference compound]	little, if any, effect																
